According to PubChem BioAssay AID220 (DTP/NCI, 2004):
The list shows only some results of the screen, not a fair sample: it is rich in T/C values a quarter to a half above the control, in often repeated tests (any T/C) and in doses without a T/C. Further doses and runs are listed elsewhere. T/C gives the treated animals as a percentage of the vehicle group. Schedules are NCI's codes, taken here to give the interval after Q, in days (D) or hours (H), and the number of doses after X. Some T/C values are followed by the survivors on the day toxicity was checked, most often the fifth; without a count, all were alive then. Some entries were tested several times; the values are given in rising order. Some values lie below zero, which means that the treated tumours became smaller. Some doses have a count of surviving animals in place of a T/C: the source holds a T/C of zero for them, seemingly a mark for toxic or unscored doses. Counts of survivors are from the toxicity check (mostly the fifth day) where no day follows; animals may have died later.

System: CD8F1 mice, subcutaneous mammary adenocarcinoma, T/C%
Test: NCI In Vivo Anticancer Drug Screen. Data for tumor model Mammary Adenocarcinoma CD8F1 (subcutaneous) in CD8F1
Settings: higher T/C = larger tumour
In short: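 Tumor-bearing mice, transplantable model; readout survival or tumor size; value = treated (T) / vehicle control (C).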

[1] = T/C endpoint: median tumor weight change, dose: 500.0 mg/kg/injection, schedule: Q01DX001 (ip), vehicle: Klucel (hydroxypropylcellulose) (HPC)
[2] = T/C endpoint: median tumor weight change, dose: 1000.0 mg/kg/injection, schedule: Q01DX001 (ip), vehicle: Klucel (hydroxypropylcellulose) (HPC)
[3] = T/C endpoint: median tumor weight change, dose: 2000.0 mg/kg/injection, schedule: Q01DX001 (ip), vehicle: Klucel (hydroxypropylcellulose) (HPC)

SMILES: O=c1cc[nH]c(=O)o1
- survivor count (T/C endpoint: mean tumor weight, dose: 75.0 mg/kg/injection, schedule: Q07DX005 (ip), vehicle: saline): 6 of 10
- T/C (T/C endpoint: median tumor weight (est.), dose: 18.5 mg/kg/injection, schedule: Q07DX005 (ip), vehicle: saline, evaluated on day 30): 141 % of control

SMILES: CC(C)NC(=O)N(CCCCBr)N=O
- survivor count [1]: 2 of 10 on day 30
- survivor count [2]: 0 of 10 on day 28 and 0 of 10 on day 30

SMILES: Cc1cc(N/N=C/c2ccccn2)nc2ccccc12
- survivor count [1]: 0 of 10 on day 25

SMILES: Cc1c(N)nc([C@H](CC(N)=O)NC[C@H](N)C(N)=O)nc1C(=O)N[C@H](C(=O)N[C@H](C)[C@@H](O)[C@H](C)C(=O)N[C@H](C(=O)NCCc1nc(-c2nc(C(=O)NCCC[S+](C)C)cs2)cs1)[C@@H](C)O)C(OC1OC(CO)C(O)C(O)C1OC1OC(CO)C(O)C(OC(N)=O)C1O)c1cnc[nH]1 (stereo partly drawn)
- T/C (T/C endpoint: median tumor weight (est.), dose: 4.0 mg/kg/injection, schedule: Q07DX005 (ip), vehicle: saline, evaluated on day 30): 16, 37 [9 of 10 alive on day 30], 58, 63 % of control
- T/C (T/C endpoint: median tumor weight (est.), dose: 4.0 mg/kg/injection, schedule: Q07DX006 (ip), vehicle: saline, evaluated on day 37): 125 % of control
- T/C (T/C endpoint: median tumor weight (est.), dose: 8.0 mg/kg/injection, schedule: Q07DX005 (ip), vehicle: saline, evaluated on day 30): 7, 20, 21, 43 % of control
- survivor count (T/C endpoint: median tumor weight (est.), dose: 64.0 mg/kg/injection, schedule: Q07DX005 (ip), vehicle: saline): 4 of 10 on day 30
- survivor count (T/C endpoint: median tumor weight (est.), dose: 128.0 mg/kg/injection, schedule: Q07DX005 (ip), vehicle: saline): 0 of 10 on day 30
- T/C (T/C endpoint: median tumor weight change, dose: 4.0 mg/kg/injection, schedule: Q01DX001 (ip), vehicle: saline, evaluated on day 28): 138 % of control
- T/C (T/C endpoint: median tumor weight change, dose: 8.0 mg/kg/injection, schedule: Q01DX001 (ip), vehicle: saline, evaluated on day 28): 77 and 121 % of control
- T/C (T/C endpoint: median tumor weight change, dose: 8.0 mg/kg/injection, schedule: Q01DX001 (ip), vehicle: saline, evaluated on day 32): 44 % of control
- T/C (T/C endpoint: median tumor weight change, dose: 8.0 mg/kg/injection, schedule: Q01DX001 (ip), vehicle: saline, evaluated on day 33): 102 % of control
- T/C (T/C endpoint: median tumor weight change, dose: 16.0 mg/kg/injection, schedule: Q01DX001 (ip), vehicle: saline, evaluated on day 28): 43 and 97 % of control
- T/C (T/C endpoint: median tumor weight change, dose: 16.0 mg/kg/injection, schedule: Q01DX001 (ip), vehicle: saline, evaluated on day 32): 16 % of control
- T/C (T/C endpoint: median tumor weight change, dose: 16.0 mg/kg/injection, schedule: Q01DX001 (ip), vehicle: saline, evaluated on day 33): 62 % of control
- T/C (T/C endpoint: median tumor weight change, dose: 32.0 mg/kg/injection, schedule: Q01DX001 (ip), vehicle: saline, evaluated on day 26): 66 % of control
- T/C (T/C endpoint: median tumor weight change, dose: 32.0 mg/kg/injection, schedule: Q01DX001 (ip), vehicle: saline, evaluated on day 28): 28 and 89 % of control
- T/C (T/C endpoint: median tumor weight change, dose: 32.0 mg/kg/injection, schedule: Q01DX001 (ip), vehicle: saline, evaluated on day 32): 16 % of control
- T/C (T/C endpoint: median tumor weight change, dose: 32.0 mg/kg/injection, schedule: Q01DX001 (ip), vehicle: saline, evaluated on day 33): 33 % of control
- T/C (T/C endpoint: median tumor weight change, dose: 64.0 mg/kg/injection, schedule: Q01DX001 (ip), vehicle: saline, evaluated on day 26): 25 % of control [9 of 10 alive on day 26]
- T/C (T/C endpoint: median tumor weight change, dose: 64.0 mg/kg/injection, schedule: Q01DX001 (ip), vehicle: saline, evaluated on day 28): 2 and 33 % of control
- T/C (T/C endpoint: median tumor weight change, dose: 64.0 mg/kg/injection, schedule: Q01DX001 (ip), vehicle: saline, evaluated on day 33): 13 % of control [9 of 10 alive on day 33]
- survivor count (T/C endpoint: median tumor weight change, dose: 64.0 mg/kg/injection, schedule: Q01DX001 (ip), vehicle: saline): 6 of 10 on day 32
- T/C (T/C endpoint: median tumor weight change, dose: 128.0 mg/kg/injection, schedule: Q01DX001 (ip), vehicle: saline, evaluated on day 26): 9 % of control [9 of 10 alive on day 26]
- T/C (T/C endpoint: median tumor weight change, dose: 128.0 mg/kg/injection, schedule: Q01DX001 (ip), vehicle: saline, evaluated on day 28): -27 [9 of 10 alive on day 28] and 1 % of control [9 of 10 alive on day 28]
- T/C (T/C endpoint: median tumor weight change, dose: 128.0 mg/kg/injection, schedule: Q01DX001 (ip), vehicle: saline, evaluated on day 32): 53 % of control
- survivor count (T/C endpoint: median tumor weight change, dose: 256.0 mg/kg/injection, schedule: Q01DX001 (ip), vehicle: saline): 5 of 10 on day 26

SMILES: C=C(C)C12CC(C)C34OC(CCCCCCCCCCC)(OC1C3C1OC1(CO)C(O)C1(O)C(=O)C(C)=CC14C)O2 (stereo not drawn)
- T/C (T/C endpoint: median tumor weight (est.), dose: 50.0 micrograms/kg/injection, schedule: Q07DX005 (ip), vehicle: saline + alcohol, evaluated on day 30): 129 % of control

SMILES: CN(C(=S)S(=O)(=O)C12CC3CC(CC(C3)C1)C2)c1ccccc1
- survivor count (T/C endpoint: median tumor weight (est.), dose: 200.0 mg/kg/injection, schedule: Q07DX005 (ip), vehicle: Klucel (hydroxypropylcellulose) (HPC)): 3 of 10 on day 30

SMILES: CSc1ncc2ncn(C3OC(CO)C(O)C3O)c2n1 (stereo not drawn)
- T/C (T/C endpoint: median tumor weight change, dose: 125.0 mg/kg/injection, schedule: Q01DX001 (ip), vehicle: Klucel (hydroxypropylcellulose) (HPC), evaluated on day 31): 132 % of control
- survivor count [3]: 2 of 10 on day 31

SMILES: CCOC(C)C(/C=N/NC(N)=S)=NNC(N)=S (stereo not drawn)
- survivor count (T/C endpoint: median tumor weight (est.), dose: 400.0 mg/kg/injection, schedule: Q07DX005 (ip), vehicle: saline with Tween-80): 2 of 10 on day 30

SMILES: CC1=C(/C=C/C(C)=C/C=C/C(C)=C/C(=O)O)C(C)(C)CCC1
- survivor count (T/C endpoint: median tumor weight (est.), dose: 256.0 mg/kg/injection, schedule: Q07DX005 (ip), vehicle: saline with Tween-80): 6 of 10 on day 30

SMILES: Cc1cc(O)c(N=Nc2ccc(C(=O)O)cc2)cc1C
- survivor count (T/C endpoint: median tumor weight (est.), dose: 800.0 mg/kg/injection, schedule: Q07DX005 (ip), vehicle: suspension in saline): 0 of 10 on day 30

SMILES: COC(=O)C[C@](O)(CCCC(C)(C)O)C(=O)O[C@@H]1C(OC)=C[C@]23CCCN2CCc2cc4c(cc2[C@H]13)OCO4
- T/C (T/C endpoint: median tumor weight (est.), dose: 0.25 mg/kg/injection, schedule: Q07DX005 (ip), vehicle: saline, evaluated on day 30): 143 % of control

SMILES: COc1cccc2c1C(=O)c1c(O)c3c(c(O)c1C2=O)C[C@@](O)(C(C)=O)C[C@@H]3OC1CC(N)C(O)C(C)O1 (stereo partly drawn)
- T/C (T/C endpoint: median tumor weight (est.), dose: 0.8 mg/kg/injection, schedule: Q07DX005 (ip), vehicle: saline, evaluated on day 30): 139 % of control
- T/C (T/C endpoint: median tumor weight (est.), dose: 1.2 mg/kg/injection, schedule: Q07DX005 (ip), vehicle: water, evaluated on day 30): 141 % of control [9 of 10 alive]
- survivor count (T/C endpoint: median tumor weight (est.), dose: 4.0 mg/kg/injection, schedule: Q07DX005 (ip), vehicle: water): 5 of 10 on day 30
- survivor count (T/C endpoint: median tumor weight (est.), dose: 8.0 mg/kg/injection, schedule: Q07DX005 (ip), vehicle: water): 1 of 10 on day 30
- survivor count (T/C endpoint: median tumor weight (est.), dose: 16.0 mg/kg/injection, schedule: Q07DX005 (ip), vehicle: water): 0 of 10 on day 30
- survivor count (T/C endpoint: median tumor weight (est.), dose: 32.0 mg/kg/injection, schedule: Q07DX005 (ip), vehicle: water): 0 of 10 on day 30

SMILES: O=C1CC2(C(=O)N1CN1CCOCC1)c1ccccc1-c1ccccc12
- survivor count [3]: 0 of 10 on day 38

SMILES: O=S(=O)(O)O
- survivor count (T/C endpoint: median tumor weight change, dose: 125.0 mg/kg/injection, schedule: Q01DX001 (ip), vehicle: Klucel (hydroxypropylcellulose) (HPC)): 4 of 10 on day 28
- survivor count (T/C endpoint: median tumor weight change, dose: 250.0 mg/kg/injection, schedule: Q01DX001 (ip), vehicle: Klucel (hydroxypropylcellulose) (HPC)): 1 of 10 on day 28
- survivor count [1]: 1 of 10 on day 28
- survivor count [2]: 0 of 10 on day 28
